PubChem BioAssay AID1259405, NCATS, 2018
Shown is one part, drawn at random, of about 50,000 deposited reagents. About 4,000 of all reagents (8%) count as active. 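Mouse siRNA library applied to hamster cells; one well for each siRNA.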 A number with no mark means an inactive call.

Aim: 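Mouse-designed siRNAs used to find CHO productivity engineering targets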 (primary screen)
Cell system: Chinese hamster CHO-K1 ovary cells with stable secreted eGFP expression
Knock-down reagent: single siRNA against mouse genes, 0.8 pmol siRNA per well (2 µl of 400 nM stock)
Time to read-out: 3 days
Measured: 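Percent of the per-plate non-targeting control median for intracellular GFP per well by laser scanning cytometry and for cell viability by ATP luminescence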
Scale: GFP, % of control: higher = more GFP per well, higher productivity; viability (ATP), % of control: higher = more viable cells (more ATP)
Active means: 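a knock-down is called active if GFP reaches 120% or more of non-targeting control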

Gene	PubChem SID	GFP, % of control	viability (ATP), % of control
Gpd2	SID363575034	80.6	83.7
Gpd2	SID363580666	59.4	67.6
Gpd2	SID363582778	91.5	78.7
Or8g26	SID363554749	50.3	32.1
Or8g26	SID363568196	66.4	83.7
Or8g26	SID363586255	109	69.8
Lilra6	SID363544876	174 (active)	62.8
Lilra6	SID363551204	95.8	67.9
Lilra6	SID363557753	84.5	82.6
Mrps35	SID363562275	83	82.1
Mrps35	SID363567413	60.9	58.1
Mrps35	SID363584770	98.1	63.4
Clcn6	SID363574541	102	95.1
Clcn6	SID363575597	23.8	24.9
Clcn6	SID363580173	87.1	81.5
Taf1c	SID363556451	60.5	46.8
Taf1c	SID363586901	90.8	101
Taf1c	SID363589009	130 (active)	109
2300002M23Rik	SID363543400	112	72.4
2300002M23Rik	SID363552893	21.1	29
2300002M23Rik	SID363558741	73.9	80.2
Gstm3	SID363570485	142 (active)	115
Gstm3	SID363579285	69	94.7
Gstm3	SID363583157	112	76.4
Onecut1	SID363573838	68.3	108
Onecut1	SID363581582	53.6	77.2
Onecut1	SID363584046	84.6	114
Dusp15	SID363539641	74.8	86
Dusp15	SID363560942	107	113
Dusp15	SID363565032	106	63.2
Actn3	SID363572179	62.2	65.2
Actn3	SID363573939	107	82.7
Pebp1	SID363569658	84.1	65.5
Pebp1	SID363576698	140 (active)	59.7
Pebp1	SID363578106	191 (active)	63.1
Lrrc14b	SID363546762	107	84.3
Lrrc14b	SID363548518	85.5	96.3
Lrrc14b	SID363560696	72.5	92.6

Just “GFP, % of control” (9 entries from above):
Clcn6 [SID363580173] = 87.1
Taf1c [SID363556451] = 60.5
Taf1c [SID363586901] = 90.8
Taf1c [SID363589009] = 130 (active)
2300002M23Rik [SID363543400] = 112
2300002M23Rik [SID363552893] = 21.1
2300002M23Rik [SID363558741] = 73.9
Gstm3 [SID363570485] = 142 (active)
Gstm3 [SID363579285] = 69

Further results:
Gene	PubChem SID	GFP, % of control	viability (ATP), % of control
Amotl2	SID363546612	88.4	62.6
Amotl2	SID363548368	54.4	45.7
Amotl2	SID363560546	99.3	67.7
Zfp715	SID363573186	77.6	50
Zfp715	SID363588425	125 (active)	95.4
Nfatc3	SID363541205	42.8	59
Nfatc3	SID363555832	77.7	96.2
Nfatc3	SID363566121	57.1	82
Taf1d	SID363542429	77	67.9
Taf1d	SID363551920	69.6	97.6
Taf1d	SID363559525	75.8	71.5
Prkag1	SID363573328	29.5	27.8
Prkag1	SID363588567	85.3	72.1
Slc15a3	SID363574627	84.8	96
Slc15a3	SID363575683	70	62.5
Slc15a3	SID363580259	75.7	87.5
Zg16	SID363543589	150 (active)	75.1
Zg16	SID363553082	83.7	66.9
Zg16	SID363558930	70.7	75.7
